# Data taken from patent EP4785953A1.
# B1: anti-c-MET antibody-1 (antibody, V domains shown)
# VH: EVQLQESGPGLVKPSETLSLTCTVSGGSVTSVNYYWKWIRQPPGKGLEWIGYISYSGNTNYNPSLKSRVTISVDTSKNQFSLKLSSVTAADTAVYYCVRAPYYYMDVWSKGTTVTVSS
# VL: DIVMTQSPSSVSASVGDRVTITCRASQGISSWLAWYQQKPGKAPKLLIYAVSSLQSGVPSRFSGSGSGTDFTLTISSLQPEDFATYFCQQANSFPLTFGGGTKVEIK
# Biological target: monkey c-MET protein (monkey)
# Test: ForteBio BLI affinity measurement
binder,measurement,value
B1,binding,binds

# No constants are given. Whether binding was seen depends on the method and setting. Binding can be weak; no strength is given.
